From article doi:10.1101/533067
Results are given in words; binding and its absence hold for the method and conditions named. In cells and extracts the contact can be indirect. Some entries that bind do so weakly or less than the wild type. Tags and fused reporters may be left off the sequences shown.

Chains of the proteins cited; added tags and fusions are not shown.
UniProt P32563: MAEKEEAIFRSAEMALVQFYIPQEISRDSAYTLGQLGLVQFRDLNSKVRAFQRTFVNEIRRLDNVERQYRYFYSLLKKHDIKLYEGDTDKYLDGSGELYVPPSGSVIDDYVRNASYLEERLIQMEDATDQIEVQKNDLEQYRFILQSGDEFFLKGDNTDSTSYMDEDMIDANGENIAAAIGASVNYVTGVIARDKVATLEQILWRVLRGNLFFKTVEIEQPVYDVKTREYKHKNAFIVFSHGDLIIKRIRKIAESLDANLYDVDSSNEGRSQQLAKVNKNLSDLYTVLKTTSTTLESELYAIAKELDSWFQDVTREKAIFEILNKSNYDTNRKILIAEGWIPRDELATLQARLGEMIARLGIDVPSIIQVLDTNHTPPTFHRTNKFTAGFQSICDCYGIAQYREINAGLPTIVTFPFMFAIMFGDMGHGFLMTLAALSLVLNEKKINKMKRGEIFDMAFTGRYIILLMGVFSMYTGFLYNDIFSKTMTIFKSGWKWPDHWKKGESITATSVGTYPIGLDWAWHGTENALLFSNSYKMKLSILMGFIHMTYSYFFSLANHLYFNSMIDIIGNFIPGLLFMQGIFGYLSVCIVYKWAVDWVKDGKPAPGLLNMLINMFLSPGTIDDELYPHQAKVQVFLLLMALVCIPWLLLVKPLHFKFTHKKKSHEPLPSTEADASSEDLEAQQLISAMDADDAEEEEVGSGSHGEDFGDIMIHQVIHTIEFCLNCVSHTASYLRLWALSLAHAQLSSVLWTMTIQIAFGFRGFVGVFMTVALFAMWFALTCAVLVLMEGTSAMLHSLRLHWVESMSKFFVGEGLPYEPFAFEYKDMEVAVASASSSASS

Biological target: T1, Pmc1 tagged with HA (Pmc1-HA3), vacuolar Ca2+ ATPase (Saccharomyces cerevisiae) (UniProt P38929)
T1 sequence: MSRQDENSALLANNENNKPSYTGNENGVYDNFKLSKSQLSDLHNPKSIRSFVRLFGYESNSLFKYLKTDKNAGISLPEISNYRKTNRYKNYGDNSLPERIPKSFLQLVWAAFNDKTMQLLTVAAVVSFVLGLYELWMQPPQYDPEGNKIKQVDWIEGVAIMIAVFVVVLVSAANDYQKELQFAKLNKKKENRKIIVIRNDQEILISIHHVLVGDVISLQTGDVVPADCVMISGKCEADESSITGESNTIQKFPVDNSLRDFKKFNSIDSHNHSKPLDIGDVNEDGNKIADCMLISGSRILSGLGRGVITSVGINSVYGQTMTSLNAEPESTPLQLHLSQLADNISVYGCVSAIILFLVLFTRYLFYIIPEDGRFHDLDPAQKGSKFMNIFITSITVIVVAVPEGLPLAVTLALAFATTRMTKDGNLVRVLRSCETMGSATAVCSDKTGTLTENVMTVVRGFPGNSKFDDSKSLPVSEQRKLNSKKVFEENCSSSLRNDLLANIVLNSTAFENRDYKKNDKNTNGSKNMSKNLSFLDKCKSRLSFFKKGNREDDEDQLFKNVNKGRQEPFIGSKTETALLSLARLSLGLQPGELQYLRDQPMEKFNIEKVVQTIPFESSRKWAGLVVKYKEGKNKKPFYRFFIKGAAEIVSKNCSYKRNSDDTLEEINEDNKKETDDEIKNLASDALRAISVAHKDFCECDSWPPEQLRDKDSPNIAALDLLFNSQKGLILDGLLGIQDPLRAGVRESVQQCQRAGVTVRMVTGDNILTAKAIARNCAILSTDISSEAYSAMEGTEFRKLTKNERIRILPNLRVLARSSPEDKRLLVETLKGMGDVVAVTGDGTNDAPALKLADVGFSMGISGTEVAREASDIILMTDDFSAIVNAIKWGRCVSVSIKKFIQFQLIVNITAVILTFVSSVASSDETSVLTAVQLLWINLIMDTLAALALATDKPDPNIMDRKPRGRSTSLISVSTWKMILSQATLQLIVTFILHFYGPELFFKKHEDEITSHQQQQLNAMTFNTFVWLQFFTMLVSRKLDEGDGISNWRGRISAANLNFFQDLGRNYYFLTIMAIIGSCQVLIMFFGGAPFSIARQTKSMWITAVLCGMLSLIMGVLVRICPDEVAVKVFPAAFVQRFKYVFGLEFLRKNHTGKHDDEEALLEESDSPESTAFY
Assay: co-IP

## Vph1, Vo component of the V-ATPase (from UniProt P32563 1-840)
  binding: binds

B1: Nyv1, vacuolar R-SNARE (protein, UniProt Q12255 1-253)
chain: MKRFNVSYVEVIKNGETISSCFQPFQKNENYGTITSANEQITPVIFHNLIMDMVLPKVVPIKGNKVTKMSMNLIDGFDCFYSTDDHDPKTVYVCFTLVDMPKILPIRILSGLQEYESNATNELLSSHVGQILDSFHEELVEYRNQTLNSSGNGQSSNGNGQNTISDIGDATEDQIKDVIQIMNDNIDKFLERQERVSLLVDKTSQLNSSSNKFRRKAVNIKEIMWWQKVKNITLLTFTIILFVSAAFMFFYLW
  binding: binds
